Screen size: about 320,000 compounds; about 620 (0.19%) were called active. The shares of active, inactive and inconclusive entries below differ from those in the screen. No stated cut-off is given here; in the data, active means activation above about 80%; inconclusive means between about 30% and that limit; inactive means weaker than that.
Biological target: Transient receptor potential cation channel subfamily V member 1 (Homo sapiens) (UniProt Q8NER1)
Assay: HTS Assay for Compounds that Act as Agonists of the Vanilloid Receptor 1; further: 0% is about no effect
Details: TRPV1-expressing cells, Fluo-8 calcium influx, agonist mode; at 8.33 µM, active compounds read high
Method in brief: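 Fluo-8 calcium influx in TRPV1-expressing cells, kinetic read (ex 480/em 520 nm). Compound added and read 3 min for agonist activity, followed by capsaicin at EC20 final and 2 min further read for enhancement.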

Sequences of proteins named here, by UniProt entry; tags and fusion partners are left off.
UniProt Q8NER1, whole entry, looked up: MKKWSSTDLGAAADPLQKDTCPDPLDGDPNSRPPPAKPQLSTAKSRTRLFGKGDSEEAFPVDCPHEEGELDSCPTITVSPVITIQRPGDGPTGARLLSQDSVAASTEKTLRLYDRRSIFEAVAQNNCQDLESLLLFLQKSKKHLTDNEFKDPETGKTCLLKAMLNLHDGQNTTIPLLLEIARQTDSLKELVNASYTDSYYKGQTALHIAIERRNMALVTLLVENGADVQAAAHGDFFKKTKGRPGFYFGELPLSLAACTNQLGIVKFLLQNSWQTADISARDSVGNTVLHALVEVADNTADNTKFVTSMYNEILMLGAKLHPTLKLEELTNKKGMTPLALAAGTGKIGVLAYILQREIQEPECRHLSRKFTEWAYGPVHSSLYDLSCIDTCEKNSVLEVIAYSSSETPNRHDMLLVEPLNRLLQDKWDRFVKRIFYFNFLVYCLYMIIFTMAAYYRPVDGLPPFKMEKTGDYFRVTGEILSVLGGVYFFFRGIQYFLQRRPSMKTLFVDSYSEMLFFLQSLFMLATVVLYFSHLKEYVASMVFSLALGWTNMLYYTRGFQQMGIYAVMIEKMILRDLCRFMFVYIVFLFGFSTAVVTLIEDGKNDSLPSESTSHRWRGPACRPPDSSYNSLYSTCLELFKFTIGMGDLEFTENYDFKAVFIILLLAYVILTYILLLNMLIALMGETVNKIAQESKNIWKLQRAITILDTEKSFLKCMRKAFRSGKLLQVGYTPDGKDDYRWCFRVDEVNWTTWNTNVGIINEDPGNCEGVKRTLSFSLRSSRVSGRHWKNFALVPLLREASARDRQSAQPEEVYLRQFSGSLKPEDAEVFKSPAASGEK

SMILES | activation
CCN(CC)CCOC(=O)c1ccc(NC(=O)CCCN2C(=O)/C(=C\c3cccs3)SC2=S)cc1 | inactive: 7.39%
CCN(CC)S(=O)(=O)c1cc(NC(=O)Cc2ccsc2)ccc1C | inconclusive: 36.3%
COc1cccc(-c2nn3c(-c4ccco4)nnc3s2)c1 | inactive: -3.77%
O=C(c1cccc(C(F)(F)F)c1)N(c1ccccn1)C1CCCCC1 | inconclusive: 31.1%
Cc1ccc(C)c(S(=O)(=O)N2CCN(C(=O)Nc3ccccc3)CC2)c1 | inconclusive: 54.1%
O=C(Cc1ccccc1)N/N=C/c1ccccc1Cl | inconclusive: 40.4%
Fc1ccc(NC(=S)NCCc2ccc(Cl)cc2)cc1 | inconclusive: 67%
COC(=O)C1=C(C)N(Cc2ccccc2)C(=NCc2cccc(Cl)c2)N[C@H]1c1cccc(F)c1 | inconclusive: 34.3%
COC(=O)c1cc(OC(=O)CCc2ccc(OC)c(OC)c2)cc(C(=O)OC)c1 | inconclusive: 36.7%
COC(=O)c1cn[nH]c1N | inactive: 2.03%
O=C(CCCN1C(=O)/C(=C/c2ccccc2)SC1=S)N1CCOCC1 | inconclusive: 31.7%
O=C(Nc1ccccc1N1CCN(C(=O)c2ccccc2)CC1)c1ccc(Br)o1 | inconclusive: 46.8%
O=C(NCCC1CCCCN1S(=O)(=O)c1cccs1)C(=O)Nc1ccccc1F (stereo not given) | inconclusive: 65.7%
COc1ccc(-c2nc(CCNC(=O)c3ccc(Br)o3)cs2)cc1 | inconclusive: 42.9%
COC(=O)c1[nH]c2ccccc2c1NC(=O)CN1CCN(c2cccc(OC)c2)C(C)C1 (stereo not given) | inconclusive: 30.1%
Cc1ccc(/C=N/NC(=O)CSCc2ccc(Cl)cc2)cc1 | inconclusive: 36.1%
Cc1ccc(NC(=O)c2ccc(S(=O)(=O)N3CCOCC3)cc2)cc1 | inconclusive: 78.9%
COC(=O)c1c(N)sc(C(=O)N2CCOCC2)c1C | inactive: 2.32%
CCOc1ccc(-n2c(-c3ccc(Br)cc3)c[n+]3c2CCCCC3)cc1 | inactive: 0.372%
c1ccc2[nH]c(CSc3nc4ccccc4o3)nc2c1 | inconclusive: 56.4%
N#Cc1c(NC(=O)C2CCCO2)sc2c1CCCCCC2 (stereo not given) | inconclusive: 45.5%
COc1ccc(/C=N/NC(=O)c2cc(-c3ccccc3OC)nc3ccccc23)cc1COC(C)=O | inactive: 3.28%
Cc1nn2c(N3CCN(c4ccccn4)CC3)cc(C(C)C)nc2c1-c1ccccc1 | inactive: 27.6%

SMILES | activation
N#Cc1ccccc1NC(=S)NC(=O)C1CCC1 | inactive: 2.23%
CCOC(=O)c1[nH]c(C)c(C(=O)NC2CCCCCC2)c1C | inconclusive: 30.6%
O=C(Cc1ccc(Cl)cc1)Nc1ccc(Cl)cn1 | inconclusive: 31.1%
CC(C)(C)C(=O)Nc1cc(S(=O)(=O)N2CCCCC2)ccc1N1CCCCC1 | inconclusive: 59.9%
O=C1NCCCC1C(=O)NCCN1C(=O)CCC1=O (stereo not given) | inconclusive: 34.1%
Cc1ccc(Cl)cc1NC(=O)c1ccc(Cn2cc(Cl)cn2)cc1 | inconclusive: 41.6%
Cc1nc(C)c(Oc2ccc(Cl)cc2Cl)c(=O)[nH]1 | inconclusive: 50%
COc1cccc(CN2CCC(C(=O)N3CCN(Cc4ccc5c(c4)OCO5)CC3)CC2)c1OC | inactive: -0.526%
Cc1ccc(NC(=O)c2ccc(S(=O)(=O)NCc3ccco3)cc2)nc1 | inconclusive: 37.2%
COC(=O)c1cc(NC(=O)C(C)c2ccc(CC(C)C)cc2)ccc1O (stereo not given) | inconclusive: 44%
CCOC(=O)c1ccc(NC(=O)CCc2nc(-c3ccccc3)no2)cc1 | inconclusive: 43.7%
C=CCOc1ccc(/C=C2\SC(N3CCCCC3)=NC2=O)cc1 | active: 81.6%
CCSC1=C(C#N)C2(CCCCC2)C2=C(CC(C)(C)CC2=O)N1 | inconclusive: 35%
Cc1cccc(C(=O)OCC(=O)NC(=O)Cc2ccccc2)c1O | inconclusive: 34.8%
Cc1ccc(C(=O)C2COC(=O)C2)cc1 (stereo not given) | inactive: 1.01%
COc1ccc(S(=O)(=O)Nc2cccnc2)cc1OC | inactive: 2.53%
Clc1ccc(Nc2ccc(Cl)nn2)cc1 | inconclusive: 59.4%
COc1ccccc1NC(=O)CN1CCN(Cc2ccccc2)CC1 | inactive: -29.9%
O=C(Nc1ccccc1C(=O)N/N=C/c1ccco1)c1ccc(F)cc1 | inactive: 28.7%
OCCN1CCN(C2Cc3cc(Cl)ccc3Sc3ccc(Cl)cc32)CC1 (stereo not given) (tested in a mixture with another compound) | inactive: -1.09%
O=C(CNC(=O)c1nc[nH]c1C(=O)NCC(=O)OCc1ccccc1)OCc1ccccc1 | inactive: -6.97%
Cc1ccc(C)c(N2CCN(S(=O)(=O)c3c(C)noc3/C=C/N(C)C)CC2)c1 | inactive: 23.1%

Rewritten in CSV form: part of the list above
SMILES,activation
Cc1ccc(NC(=O)c2ccc(S(=O)(=O)N3CCOCC3)cc2)cc1,inconclusive: 78.9%
N#Cc1c(NC(=O)C2CCCO2)sc2c1CCCCCC2 (stereo not given),inconclusive: 45.5%

— PubChem BioAssay AID540275 (National Center for Advancing Translational Sciences (NCATS), 2011)
